According to the supplement of paper PMC12823440, “Inhibitors supercharge kinase turnover through native proteolytic circuits” (Nature, 2025):
Structures can show the parent of a compound that is named as a salt. This is one part of the list. The calls rarely recur for the same compound in another form.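 Kinases were expressed as nanoluciferase fusions in K562 cells and luminescence was read every 4 h between 2 and 18 h as percent of control, DMSO set to 100% and a positive control to 0%. A time point counts as decreased when the signal drops significantly (2 sigma). The hit call is the authors' own, does not follow from the count of time points alone, and its rule is not shown.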

Protein sequences, listed by entry. Tags and fused reporters are not part of them. Lines headed by an entry give the natural chain unless they say otherwise; changes in a name come on top.
UniProt Q16288, whole entry, looked up: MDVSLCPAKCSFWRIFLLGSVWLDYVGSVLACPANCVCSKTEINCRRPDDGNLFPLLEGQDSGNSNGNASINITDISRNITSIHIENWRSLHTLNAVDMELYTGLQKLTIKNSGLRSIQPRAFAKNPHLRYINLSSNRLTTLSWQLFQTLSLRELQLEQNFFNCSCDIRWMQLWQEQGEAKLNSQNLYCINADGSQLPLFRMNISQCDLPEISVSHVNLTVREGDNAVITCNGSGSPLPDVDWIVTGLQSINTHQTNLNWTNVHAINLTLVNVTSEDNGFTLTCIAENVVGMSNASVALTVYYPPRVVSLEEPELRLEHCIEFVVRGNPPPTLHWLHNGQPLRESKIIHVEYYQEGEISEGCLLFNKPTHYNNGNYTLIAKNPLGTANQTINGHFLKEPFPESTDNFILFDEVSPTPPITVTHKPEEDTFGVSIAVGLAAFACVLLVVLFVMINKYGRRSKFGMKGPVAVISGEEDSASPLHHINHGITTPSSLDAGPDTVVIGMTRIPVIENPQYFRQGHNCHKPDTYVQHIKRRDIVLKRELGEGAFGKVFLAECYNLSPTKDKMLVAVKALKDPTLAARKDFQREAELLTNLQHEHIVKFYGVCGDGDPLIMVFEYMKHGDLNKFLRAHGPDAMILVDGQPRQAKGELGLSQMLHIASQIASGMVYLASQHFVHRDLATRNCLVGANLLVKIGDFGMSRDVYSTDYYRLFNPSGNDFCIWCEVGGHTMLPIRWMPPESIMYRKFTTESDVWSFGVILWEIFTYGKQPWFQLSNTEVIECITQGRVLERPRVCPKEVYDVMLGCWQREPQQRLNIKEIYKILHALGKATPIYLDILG
UniProt O96013: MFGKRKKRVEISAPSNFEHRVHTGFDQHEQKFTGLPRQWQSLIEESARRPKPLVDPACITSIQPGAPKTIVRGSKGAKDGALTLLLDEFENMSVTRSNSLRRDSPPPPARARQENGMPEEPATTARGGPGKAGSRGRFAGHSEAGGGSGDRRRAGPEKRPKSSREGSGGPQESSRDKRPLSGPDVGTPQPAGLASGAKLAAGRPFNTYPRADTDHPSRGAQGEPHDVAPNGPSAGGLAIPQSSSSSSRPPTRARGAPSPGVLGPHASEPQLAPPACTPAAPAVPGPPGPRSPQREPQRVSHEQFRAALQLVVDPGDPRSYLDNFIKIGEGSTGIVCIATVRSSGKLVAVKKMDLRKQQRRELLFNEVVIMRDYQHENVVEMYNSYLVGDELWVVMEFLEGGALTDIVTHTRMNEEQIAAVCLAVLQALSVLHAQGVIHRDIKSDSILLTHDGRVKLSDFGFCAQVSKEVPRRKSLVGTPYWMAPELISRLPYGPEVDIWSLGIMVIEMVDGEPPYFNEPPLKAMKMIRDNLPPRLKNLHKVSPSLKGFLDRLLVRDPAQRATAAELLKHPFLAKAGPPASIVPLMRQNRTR
UniProt Q96KB5: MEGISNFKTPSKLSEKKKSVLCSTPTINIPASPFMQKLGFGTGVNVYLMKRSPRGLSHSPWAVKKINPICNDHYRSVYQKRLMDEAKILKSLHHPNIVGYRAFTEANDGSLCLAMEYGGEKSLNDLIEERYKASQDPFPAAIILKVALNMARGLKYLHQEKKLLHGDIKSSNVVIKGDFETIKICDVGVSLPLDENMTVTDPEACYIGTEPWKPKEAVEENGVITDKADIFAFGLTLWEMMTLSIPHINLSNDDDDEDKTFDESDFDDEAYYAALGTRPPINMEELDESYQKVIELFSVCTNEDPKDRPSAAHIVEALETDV
UniProt Q15118, whole entry, looked up: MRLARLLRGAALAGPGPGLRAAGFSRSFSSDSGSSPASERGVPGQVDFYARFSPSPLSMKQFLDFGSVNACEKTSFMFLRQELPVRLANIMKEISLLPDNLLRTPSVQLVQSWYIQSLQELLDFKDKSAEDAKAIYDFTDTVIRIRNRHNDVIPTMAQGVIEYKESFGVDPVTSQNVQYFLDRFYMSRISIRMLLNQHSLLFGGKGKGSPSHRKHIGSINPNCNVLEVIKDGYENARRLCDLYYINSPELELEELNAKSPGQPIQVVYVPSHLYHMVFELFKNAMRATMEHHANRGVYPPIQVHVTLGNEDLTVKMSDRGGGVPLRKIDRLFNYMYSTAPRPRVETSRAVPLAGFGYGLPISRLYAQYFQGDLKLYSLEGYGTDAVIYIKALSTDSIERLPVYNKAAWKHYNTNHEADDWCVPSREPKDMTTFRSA
UniProt O15530: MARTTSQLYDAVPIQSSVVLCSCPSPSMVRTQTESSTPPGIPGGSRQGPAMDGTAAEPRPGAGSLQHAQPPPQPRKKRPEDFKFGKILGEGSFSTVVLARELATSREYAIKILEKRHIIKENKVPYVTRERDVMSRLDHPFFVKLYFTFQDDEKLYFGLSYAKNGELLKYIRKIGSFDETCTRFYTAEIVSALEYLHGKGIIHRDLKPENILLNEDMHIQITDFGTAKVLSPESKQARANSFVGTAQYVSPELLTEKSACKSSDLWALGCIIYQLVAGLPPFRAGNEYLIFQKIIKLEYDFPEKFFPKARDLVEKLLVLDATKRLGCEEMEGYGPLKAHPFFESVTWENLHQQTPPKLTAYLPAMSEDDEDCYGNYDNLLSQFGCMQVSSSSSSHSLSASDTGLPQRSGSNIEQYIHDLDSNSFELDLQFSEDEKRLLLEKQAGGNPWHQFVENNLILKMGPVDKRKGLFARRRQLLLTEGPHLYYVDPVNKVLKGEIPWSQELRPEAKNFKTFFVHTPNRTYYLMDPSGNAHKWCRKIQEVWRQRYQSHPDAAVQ
UniProt P42356, whole entry, looked up: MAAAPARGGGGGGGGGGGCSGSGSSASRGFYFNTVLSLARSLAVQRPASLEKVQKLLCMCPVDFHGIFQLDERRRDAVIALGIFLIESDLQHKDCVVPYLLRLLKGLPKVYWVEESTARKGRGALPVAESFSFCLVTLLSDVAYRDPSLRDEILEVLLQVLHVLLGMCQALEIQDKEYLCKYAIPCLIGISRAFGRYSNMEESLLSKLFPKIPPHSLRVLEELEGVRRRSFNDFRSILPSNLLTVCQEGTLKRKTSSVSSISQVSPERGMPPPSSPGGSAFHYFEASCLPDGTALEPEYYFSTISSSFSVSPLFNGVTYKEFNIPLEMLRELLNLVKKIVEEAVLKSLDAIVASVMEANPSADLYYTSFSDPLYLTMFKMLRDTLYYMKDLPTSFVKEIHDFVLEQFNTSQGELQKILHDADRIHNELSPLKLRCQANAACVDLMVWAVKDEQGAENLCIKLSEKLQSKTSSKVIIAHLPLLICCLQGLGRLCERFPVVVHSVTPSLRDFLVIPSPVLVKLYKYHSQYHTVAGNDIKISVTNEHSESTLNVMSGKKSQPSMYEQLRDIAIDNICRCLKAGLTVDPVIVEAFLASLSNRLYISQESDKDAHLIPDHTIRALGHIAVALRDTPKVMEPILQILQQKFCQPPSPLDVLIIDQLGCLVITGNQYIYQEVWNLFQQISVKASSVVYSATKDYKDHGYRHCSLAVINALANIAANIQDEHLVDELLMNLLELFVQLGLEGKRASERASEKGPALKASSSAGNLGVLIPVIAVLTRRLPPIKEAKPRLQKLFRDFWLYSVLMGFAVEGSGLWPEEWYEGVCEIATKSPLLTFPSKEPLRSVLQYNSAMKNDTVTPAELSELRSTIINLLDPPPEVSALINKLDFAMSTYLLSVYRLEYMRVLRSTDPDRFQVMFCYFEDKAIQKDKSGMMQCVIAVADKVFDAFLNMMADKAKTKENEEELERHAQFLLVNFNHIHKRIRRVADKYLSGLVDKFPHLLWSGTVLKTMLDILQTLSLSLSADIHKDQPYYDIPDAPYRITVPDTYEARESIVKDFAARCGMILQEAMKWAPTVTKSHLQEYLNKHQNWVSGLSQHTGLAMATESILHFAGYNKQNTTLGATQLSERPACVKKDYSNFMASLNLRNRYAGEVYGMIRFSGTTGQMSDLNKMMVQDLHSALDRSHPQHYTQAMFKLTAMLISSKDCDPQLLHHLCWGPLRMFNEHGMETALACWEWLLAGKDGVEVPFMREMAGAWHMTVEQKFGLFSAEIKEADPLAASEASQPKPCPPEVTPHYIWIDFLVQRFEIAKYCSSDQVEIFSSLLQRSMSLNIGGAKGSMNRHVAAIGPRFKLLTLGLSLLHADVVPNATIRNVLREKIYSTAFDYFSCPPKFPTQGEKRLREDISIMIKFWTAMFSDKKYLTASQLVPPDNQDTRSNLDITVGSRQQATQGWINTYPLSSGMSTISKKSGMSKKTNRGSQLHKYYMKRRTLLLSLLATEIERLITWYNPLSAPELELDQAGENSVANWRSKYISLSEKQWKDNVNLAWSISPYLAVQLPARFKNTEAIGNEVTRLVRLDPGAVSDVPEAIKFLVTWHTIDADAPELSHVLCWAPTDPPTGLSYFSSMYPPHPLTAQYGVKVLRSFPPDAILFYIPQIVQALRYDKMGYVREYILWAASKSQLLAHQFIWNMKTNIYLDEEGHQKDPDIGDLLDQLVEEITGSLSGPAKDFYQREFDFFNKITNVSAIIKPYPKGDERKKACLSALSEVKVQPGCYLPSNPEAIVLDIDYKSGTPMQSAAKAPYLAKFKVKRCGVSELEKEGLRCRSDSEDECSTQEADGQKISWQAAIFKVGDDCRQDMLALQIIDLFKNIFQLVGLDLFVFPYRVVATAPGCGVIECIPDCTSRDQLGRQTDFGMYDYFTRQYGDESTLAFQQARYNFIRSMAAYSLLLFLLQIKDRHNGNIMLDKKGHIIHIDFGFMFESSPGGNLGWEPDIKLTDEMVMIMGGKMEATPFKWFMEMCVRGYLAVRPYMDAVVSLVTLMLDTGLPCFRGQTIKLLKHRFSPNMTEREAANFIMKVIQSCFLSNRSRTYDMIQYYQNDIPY
UniProt Q9UBF8: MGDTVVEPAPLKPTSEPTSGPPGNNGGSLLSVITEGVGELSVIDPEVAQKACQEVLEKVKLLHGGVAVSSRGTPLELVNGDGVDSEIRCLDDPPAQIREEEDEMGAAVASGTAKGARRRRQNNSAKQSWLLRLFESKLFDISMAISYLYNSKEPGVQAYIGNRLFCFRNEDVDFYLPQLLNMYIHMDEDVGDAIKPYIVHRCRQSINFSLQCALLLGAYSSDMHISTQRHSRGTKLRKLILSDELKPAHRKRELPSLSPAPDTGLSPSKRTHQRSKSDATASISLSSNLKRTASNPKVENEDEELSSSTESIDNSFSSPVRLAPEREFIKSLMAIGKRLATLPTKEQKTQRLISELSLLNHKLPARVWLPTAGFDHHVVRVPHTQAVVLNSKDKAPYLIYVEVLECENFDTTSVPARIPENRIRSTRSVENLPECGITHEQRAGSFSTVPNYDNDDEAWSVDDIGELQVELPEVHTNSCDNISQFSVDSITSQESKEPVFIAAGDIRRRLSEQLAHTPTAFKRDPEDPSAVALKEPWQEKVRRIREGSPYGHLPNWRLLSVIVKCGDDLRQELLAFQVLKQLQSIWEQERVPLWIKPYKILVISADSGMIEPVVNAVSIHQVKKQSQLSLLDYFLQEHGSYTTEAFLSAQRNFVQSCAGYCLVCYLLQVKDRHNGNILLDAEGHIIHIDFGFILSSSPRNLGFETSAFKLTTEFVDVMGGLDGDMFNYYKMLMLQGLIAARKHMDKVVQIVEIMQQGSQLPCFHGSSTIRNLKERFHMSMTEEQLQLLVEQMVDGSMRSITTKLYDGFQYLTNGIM
UniProt Q13131: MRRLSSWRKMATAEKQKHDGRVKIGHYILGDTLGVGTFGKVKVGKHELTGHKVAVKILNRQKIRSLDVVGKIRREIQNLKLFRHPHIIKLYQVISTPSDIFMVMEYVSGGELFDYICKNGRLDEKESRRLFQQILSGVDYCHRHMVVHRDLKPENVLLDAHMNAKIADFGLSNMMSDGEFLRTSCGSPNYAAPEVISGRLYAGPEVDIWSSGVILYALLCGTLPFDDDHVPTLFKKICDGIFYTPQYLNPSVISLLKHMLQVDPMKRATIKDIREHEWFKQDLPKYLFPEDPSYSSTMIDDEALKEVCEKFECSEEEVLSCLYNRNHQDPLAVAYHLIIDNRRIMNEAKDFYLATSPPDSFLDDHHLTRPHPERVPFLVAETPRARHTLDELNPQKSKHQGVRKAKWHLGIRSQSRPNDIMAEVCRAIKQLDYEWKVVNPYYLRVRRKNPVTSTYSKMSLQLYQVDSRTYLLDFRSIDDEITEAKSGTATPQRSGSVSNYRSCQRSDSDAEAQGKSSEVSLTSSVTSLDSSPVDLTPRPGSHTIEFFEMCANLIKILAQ

Legend:
Experiment in all cases: number of time points (of 5) at which kinase-Nluc abundance scored as decreased, DMSO-normalised (count); higher = more persistent destabilization
Settings in all cases: K562; 2-18 h
NTRK3 = NTRK3 (UniProt Q16288)
PAK4 = PAK4 (UniProt O96013)
PBK = PBK (UniProt Q96KB5)
PDGFRB = PDGFRB (UniProt P09619)
PDK1 = PDK1 (UniProt Q15118)
PDPK1 = PDPK1 (UniProt O15530)
PIK4CA = PIK4CA (UniProt P42356)
PIK4CB = PIK4CB (UniProt Q9UBF8)
PLK1 = PLK1 (UniProt P53350)
PRKAA1 = PRKAA1 (UniProt Q13131)

Measured: number of time points

Cc1[nH]c(/C=C2\C(=O)Nc3ccccc32)c(C)c1CCC(=O)O [Orantinib] (10 µM)
0: all assays above

CCN1CCN(Cc2ccc(-c3cc4c(N[C@H](C)c5ccccc5)ncnc4[nH]3)cc2)CC1 (2.5 µM)
2: PDPK1 | PIK4CA
3: PIK4CB
1: PDGFRB | PLK1 | PRKAA1
0: all other assays above

COc1cc2nccc(Oc3ccc(NC(=O)NC4CC4)c(Cl)c3)c2cc1C(N)=O [Lenvatinib (mesylate)] (10 µM)
3: PIK4CB
4: PDPK1
1: PLK1
0: all other assays above

C[C@]1(O)CCN(c2nc(N3C[C@H](O)[C@@H](O)C3)cc(C(F)(F)F)c2C#N)C1 (10 µM)
0: all assays above

CC[C@@H](Oc1nc(Oc2cc(C)cc(-c3cccc(CN)c3)c2)c(F)cc1F)C(=O)O (10 µM)
0: all assays above

C=CC(=O)Nc1cccc(Nc2nc(Nc3ccc(N4CCN(C(C)=O)CC4)cc3OC)ncc2C(F)(F)F)c1 [Rociletinib hydrobromide] (10 µM)
0: all assays above

CN1CCN(c2cnc3c(C4CCN(C(=O)c5ccc(OC(F)(F)F)cc5N)CC4)ncnc3c2)CC1 (10 µM)
0: all assays above

Cc1cc2ncc(-c3ccc(O)c(O)c3)nc2cc1C [Tyrphostin AG1433] (10 µM)
0: all assays above

C=CC(=O)Nc1cccc(Nc2nc(Nc3ccc(NC4CN(CCF)C4)cc3OC)ncc2C(F)(F)F)c1 (2.5 µM)
0: all assays above

CC(C)(C)c1nc(-c2cccc(NS(=O)(=O)c3c(F)cccc3F)c2F)c(-c2ccnc(N)n2)s1 [Dabrafenib] (2.5 µM)
0: all assays above

N#CCC1CCN(c2nc(Nc3ccc(N4CCC(O)CC4)cc3)c3c(=O)[nH]ncc3n2)CC1 [Gusacitinib] (10 µM)
2: PDPK1
0: all other assays above

CS(=O)(=O)Nc1cc(-c2ccc3ncnc(Nc4ccc(F)c(Cl)c4)c3c2)cnc1Cl (2.5 µM)
2: PDGFRB | PDPK1 | PIK4CB
0: all other assays above

COc1cc(/C=C/C(=O)NCC(O)c2ccc(O)cc2)ccc1O (stereo not given) [N-Feruloyloctopamine] (2.5 µM)
0: all assays above

Cc1ccccc1-n1c([C@H](C)Nc2nc(N)nc3nc[nH]c23)nc2cccc(C)c2c1=O [CAL-130 (Hydrochloride)] (10 µM)
0: all assays above

Cn1cc(-c2ccc3c(c2)CCN3C(=O)Cc2cccc(C(F)(F)F)c2)c2c(N)ncnc21 (2.5 µM)
0: all assays above

Cc1c(NC(=O)c2cccn(-c3ccc(F)cc3)c2=O)ccc(Oc2ccnc(NC(=O)C3CC3)c2)c1C (2 µM)
4: PDPK1
1: NTRK3 | PLK1
3: PDGFRB
0: all other assays above

COc1ccc(-c2ccc3c(N4CCOCC4)nc(N4C[C@@H](C)O[C@@H](C)C4)nc3n2)cc1CO (2.5 µM)
0: all assays above

c1cc(-c2c[nH]c3nccc(N4CCC[C@@]5(CCCCN5)C4)c23)ncn1 (10 µM)
0: all assays above

C=CC(=O)Nc1ccc(CN2C(=O)N(c3cc(OC)cc(OC)c3)Cc3cnc(Nc4ccc(N5CCN(C)CC5)cc4)nc32)cc1 (2.5 µM)
0: all assays above

CN(C)CCCOc1ccc(-c2ccc3ncc4c(c3c2)n(C2CCOCC2)c(=O)n4C)cn1 (2 µM)
0: all assays above

CC(=O)NC1CC(n2cnc(NC(=O)Cc3ccc4ccccc4c3)c2)C1 (stereo not given) (10 µM)
0: all assays above

CN1CCN(c2cccc(Nc3nc4c(-c5ccc(S(C)(=O)=O)cc5)cccn4n3)c2)CC1 (10 µM)
0: all assays above

C=CC(=O)Nc1cc(C)ccc1Nc1nc(Nc2cc(OC)ncc2C)ncc1C(F)(F)F (10 µM)
0: all assays above

COc1ncc(Cl)cc1S(=O)(=O)Nc1ccc(F)c(C#Cc2cnc(N)nc2)c1F (2.5 µM)
0: all assays above

Cn1cc(-c2cnn3c(N)c(Br)c([C@@H]4CCCNC4)nc23)cn1 (2.5 µM)
1: NTRK3 | PDGFRB
2: PDPK1 | PIK4CA
0: all other assays above

O=c1[nH]c(=O)n([C@@H]2O[C@H](CO)[C@@H](O)[C@@H]2O)cc1/C=C/Br [Sorivudine] (10 µM)
0: all assays above

C[C@@H](c1ccc(F)cc1)n1nnc2cnc3ccc(-c4ccc5ocnc5c4)cc3c21 (10 µM)
0: all assays above

CN(CC(=O)N(Cc1ccc(C2CCCCC2)cc1)c1ccc(C(=O)NO)cc1)S(=O)(=O)c1c(F)c(F)c(F)c(F)c1F (2.5 µM)
0: all assays above

COc1ccc2c(OCc3nnc4ccc(-c5ccccc5)nn34)ccnc2c1 (2 µM)
0: all assays above

CN1C(=O)N[C@H](Cc2c[nH]c3c(Cl)cccc23)C1=O [Necrostatin 2] (10 µM)
0: all assays above

COc1cccc(OC)c1C(=O)OCc1cc(O)ccc1O[C@@H]1O[C@H](CO)[C@@H](O)[C@H](O)[C@H]1O [Curculigoside] (10 µM)
0: all assays above

COc1cc2ncnc(Nc3ccc(Cl)cc3F)c2cc1OC (10 µM)
0: all assays above

C[C@@H]1CC[C@@H](Nc2nc(NC(C)(C)C)ncc2C(N)=O)C[C@H]1O (10 µM)
0: all assays above

Oc1ccc(Nc2nc(-c3ccc(Cl)cc3)cs2)cc1 (10 µM)
0: all assays above

CCNc1nc(Nc2cc(F)c(C(=O)N3CCOCC3)cc2OC)ncc1C(F)(F)F [GNE-7915 (tosylate)] (10 µM)
0: all assays above

CC(C)(O)CNc1ncc(-c2ccnc(Nc3ccnc(Cl)c3)n2)c(CC2CC2)n1 (2.5 µM)
0: all assays above

Cc1ccc2cc(-c3c(C)ccc(C(=O)c4c(-c5ccccc5)n(C)n(-c5ccccc5)c4=O)c3N)ccc2n1 (2.5 µM)
0: all assays above

Cn1nccc1Nc1nccc(-c2ccn([C@H](CO)c3ccc(Cl)c(F)c3)c(=O)c2)n1 [Ravoxertinib] (10 µM)
0: all assays above

O=C(Nc1ccc(CN2CCOCC2)cc1)c1ccc(-c2cccc(Cl)c2)o1 (10 µM)
0: all assays above

Cc1cc(O)c2c(c1)C(=O)c1cc(O)cc(O)c1C2=O [Emodin] (10 µM)
0: all assays above

OCCn1cc(-c2ccc3c(c2)CC/C3=N\O)c(-c2ccncc2)n1 (10 µM)
0: all assays above

COc1cc2nccc(Oc3ccc(NC(=O)NC4CC4)c(Cl)c3)c2cc1C(N)=O [Lenvatinib] (10 µM)
0: all assays above

O=C1NC(=O)/C(=C\c2cccc(C(F)(F)F)c2)S1 (2.5 µM)
0: all assays above

O=C(O)CCC(=O)Nc1ccc(Br)cn1 [Bikinin] (10 µM)
0: all assays above

Cc1ccc(OCCSc2ncccn2)c(Br)c1 [ZLN024 (hydrochloride)] (10 µM)
0: all assays above

CCc1cc2c(cc1N1CCC(N3CCOCC3)CC1)C(C)(C)c1[nH]c3cc(C#N)ccc3c1C2=O [Alectinib] (10 µM)
0: all assays above

Cc1cccc(-c2[nH]ncc2-c2ccc(F)c(-c3cnn(CCO)c3)c2)n1 (10 µM)
0: all assays above

COc1cc(Nc2ncc(F)c(Nc3ccc4c(n3)N(COP(=O)(O)O)C(=O)C(C)(C)O4)n2)cc(OC)c1OC [Fostamatinib (disodium hexahydrate)] (10 µM)
0: all assays above

C[C@@H]1CCN(C(=O)CC#N)C[C@@H]1N(C)c1ncnc2[nH]ccc12 [Tofacitinib] (10 µM)
not listed: PDGFRB
0: all other assays above

Cc1ccc(C(=O)Nc2ccc(Oc3cc4cnn(C)c4cc3-c3cn[nH]c3)c(F)c2)c(=O)n1-c1ccc(F)cc1 [Merestinib] (2.5 µM)
4: PDGFRB
0: all other assays above

CN(C)CCSSCCNC(=O)C1CCN(C(=O)CSc2ccc(Cl)cc2)CC1 (10 µM)
0: all assays above

Nc1ccc(-c2cnc(N)c(-c3ccc(Cl)cc3)c2)cn1 (10 µM)
0: all assays above

Cn1ncc(Cl)c1-c1cc(C(=O)N[C@H](CN)Cc2ccc(F)c(F)c2)oc1Cl [Uprosertib] (10 µM)
0: all assays above

C=C1C(=O)O[C@H]2C[C@H](C)C(/C=C/C(C)=O)=CC[C@H]12 [Xanthatin] (2.5 µM)
0: all assays above

O=S(=O)(NCCCN1c2ccccc2CCc2ccc(Cl)cc21)c1ccc(OC(F)(F)F)cc1 (2.5 µM)
0: all assays above

CCN1CCC(n2cc(CNc3cc(Cl)c4ncc(C#N)c(Nc5ccc(F)c(Cl)c5)c4c3)nn2)CC1 [Cot inhibitor-2] (2.5 µM)
0: all assays above

COc1ccc(OC)c(C2C(C#N)=C(N)Oc3n[nH]c(-c4ccc5ccccc5c4)c32)c1 (stereo not given) (10 µM)
0: all assays above

CC1(C)C(O[C@@H]2OC[C@@H](O)[C@H](O)[C@H]2O)CC[C@]23CC24CC[C@]2(C)[C@@H]([C@@]5(C)CC[C@@H](C(C)(C)O)O5)[C@H](O)C[C@@]2(C)C4C[C@@H](O[C@@H]2O[C@H](CO)[C@@H](O)[C@H](O)[C@H]2O)C13 (stereo not given in full) [Astragaloside IV] (10 µM)
0: all assays above

Cc1cc(Nc2ncnc3ccc(NC4=NC(C)(C)CO4)cc23)ccc1Oc1ccn2ncnc2c1 [Tucatinib] (2.5 µM)
0: all assays above

Cc1[nH]c(/C=C2\C(=O)Nc3ccccc32)c(C)c1CCC(=O)O [(Z)-Orantinib] (10 µM)
0: all assays above

Cn1cnc2c(F)c(Nc3ccc(Br)cc3Cl)c(C(=O)NOCCO)cc21 [Selumetinib] (10 µM)
0: all assays above

CCN1CCN(Cc2ccc(Nc3ncc(F)c(-c4cc(F)c5nc(C)n(C(C)C)c5c4)n3)nc2)CC1 [Abemaciclib] (2 µM)
0: all assays above

O=C(NCCN1CCOCC1)c1cc2c(Oc3ccc(NC(=O)C4(C(=O)Nc5ccc(F)cc5)CC4)cc3)ccnc2[nH]1 [Tyrosine kinase inhibitor] (10 µM)
1: PDGFRB
0: all other assays above

COc1cc2c(N3CCN(C(=O)Nc4ccc(OC(C)C)cc4)CC3)ncnc2cc1OCCCN1CCCCC1 [Tandutinib (hydrochloride)] (10 µM)
not listed: NTRK3 | PDGFRB
0: all other assays above

C[C@H](c1ccnc(Nc2nc3ccc(-c4cc(N(C)C)ncn4)cc3[nH]2)c1)N1CCN(C(=O)CC(F)(F)F)CC1 (2.5 µM)
0: all assays above

CNC(=O)c1c(F)cccc1Nc1nc(Nc2cc3c(cc2OC)CCN3C(=O)CN(C)C)nc2[nH]ccc12 (10 µM)
0: all assays above

Cc1ccc2nc(NCCN)c3ncc(C)n3c2c1 (2.5 µM)
not listed: PDPK1
0: all other assays above

O=C(N/N=C/c1coc2ccccc2c1=O)c1cccnc1 (10 µM)
0: all assays above

c1cncc(CN2CCC(n3ncc4c(N5CCOCC5)nc(-c5ccc6[nH]ccc6c5)nc43)CC2)c1 (10 µM)
2: PRKAA1
4: NTRK3 | PDPK1
3: PIK4CA | PIK4CB
0: all other assays above

NS(=O)(=O)c1ccc(-n2nc(C(F)(F)F)cc2-c2ccc(Cl)cc2)cc1 (10 µM)
0: all assays above

COc1cc(Nc2ncc(F)c(Nc3ccc4c(n3)NC(=O)C(C)(C)O4)n2)cc(OC)c1OC (10 µM)
not listed: NTRK3
0: all other assays above

Cn1cnc2c(F)c(Nc3ccc(Br)cc3Cl)c(C(=O)NOCCO)cc21 [Selumetinib (sulfate)] (10 µM)
0: all assays above

O=c1cc(CN2CCOCC2)occ1OCCCCCSc1ccnc2cc(C(F)(F)F)ccc12 (10 µM)
0: all assays above
